According to PubChem BioAssay AID248 (DTP/NCI, 2004):
The list does not hold the whole screen: it is rich in T/C values a quarter to a half above the control, in often repeated tests (any T/C) and in doses without a T/C. Other doses and runs of a compound stand elsewhere. T/C: endpoint of the treated group in % of that of the vehicle group. Some doses have a count of surviving animals in place of a T/C: the source files T/C as zero there, which appears to mark a toxic dose or a test without result, not a measured value. Some doses without a T/C left all or most animals alive at the check, yet need not have been tolerated: the source hardly ever lists a survival T/C far under the control, and the zero likely stands for such cases as well. Counts of survivors are from the toxicity check (mostly the fifth day) where no day follows; animals may have died later. Schedule codes are those of the source, taken here to give the interval after Q, in days (D) or hours (H), and the number of doses after X. For survival time, the PubChem record calls one and a half times the control and up active, and a quarter to a half above the control has no call in these data; cut-offs in other NCI protocols can differ. Some schedules carry Z or #; the key to these is not given. Some T/C values carry the count of animals alive at the toxicity check (mostly the fifth day); without a count, all were alive then.

System: L1210 leukemia ip in BDF1 mice, survival T/C
Experiment: NCI In Vivo Anticancer Drug Screen. Data for tumor model L1210 Leukemia (intraperitoneal) in B6D2F1 (BDF1) mice
Conditions: T/C endpoint: mean survival time, higher T/C = longer survival
[1] = dose: 300.0 mg/kg/injection, schedule: Q01DX001 (ip), vehicle: carboxymethylcellulose (CMC)
[2] = dose: 100.0 mg/kg/injection, schedule: Q04DX003 (ip), vehicle: Klucel (hydroxypropylcellulose) (HPC)
[3] = dose: 200.0 mg/kg/injection, schedule: Q04DX003 (ip), vehicle: Klucel (hydroxypropylcellulose) (HPC)
[4] = dose: 400.0 mg/kg/injection, schedule: Q04DX003 (ip), vehicle: Klucel (hydroxypropylcellulose) (HPC)
[5] = dose: 100.0 mg/kg/injection, schedule: Q04DX003 (ip), vehicle: saline
[6] = dose: 100.0 mg/kg/injection, schedule: Q04DX002 (ip), vehicle: saline with Tween-80
[7] = dose: 200.0 mg/kg/injection, schedule: Q04DX002 (ip), vehicle: saline with Tween-80
[8] = dose: 400.0 mg/kg/injection, schedule: Q01DX009 (ip), vehicle: Klucel (hydroxypropylcellulose) (HPC)
[9] = dose: 200.0 mg/kg/injection, schedule: Q04DX003 (ip), vehicle: saline
[10] = dose: 100.0 mg/kg/injection, schedule: Q01DX009 (ip), vehicle: saline

For `O=C(Nc1ccc(C(=O)O)cc1)Oc1ccc(N(CCCl)CCCl)cc1`, the T/C (dose: 24.0 mg/kg/injection, schedule: Q01DX009 (ip), vehicle: other) was 130 % of control, the T/C (dose: 24.0 mg/kg/injection, schedule: Q01DX009 (ip), vehicle: saline) was 141 % of control and the T/C (dose: 48.0 mg/kg/injection, schedule: Q01DX009 (ip), vehicle: saline) was 129 % of control. For the same compound, the T/C (dose: 150.0 mg/kg/injection, schedule: Q01DX001 (ip), vehicle: carboxymethylcellulose (CMC)) was 142 % of control, the T/C (dose: 150.0 mg/kg/injection, schedule: Q01DX001 (ip), vehicle: other) was 130 % of control and the survivor count (dose: 192.0 mg/kg/injection, schedule: Q01DX009 (ip), vehicle: other) was 3 of 6. For the same compound, the survivor count (dose: 192.0 mg/kg/injection, schedule: Q01DX009 (ip), vehicle: saline) was 2 of 6 and the survivor count [1] was 6 of 6.

For `Cn1c(=O)c2[nH]c(C3CC4C=CC3C4)nc2n(C)c1=O` (stereo not given), the survivor count (dose: 400.0 mg/kg/injection, schedule: Q01DX001 (ip), vehicle: saline) was 0 of 4.

`CCCNC(=O)Nc1ccc(C(=O)OCC(C)C)cc1` was tested, and the survivor count (dose: 400.0 mg/kg/injection, schedule: Q01DX009 (ip), vehicle: saline with Tween-80) was 6 of 6.

With `Brc1ccc2c(c1)-c1ccccc1C1=NCCN12` the survivor count (dose: 20.0 mg/kg/injection, schedule: Q01DX009 (ip), vehicle: Klucel (hydroxypropylcellulose) (HPC)) was 3 of 6, the survivor count (dose: 40.0 mg/kg/injection, schedule: Q04DX003 (ip), vehicle: Klucel (hydroxypropylcellulose) (HPC)) was 1 of 6 and the survivor count (dose: 80.0 mg/kg/injection, schedule: Q04DX003 (ip), vehicle: Klucel (hydroxypropylcellulose) (HPC)) was 0 of 6. For the same compound, the survivor count [2] was 0 of 6, the survivor count [3] was 0 of 6 and the survivor count [4] was 0 of 6.

`FC(F)(F)c1ccc2c(c1)N(CCCN1CCN(CC[n+]3ccccc3)CC1)c1ccccc1S2` was tested, and the survivor count (dose: 21.0 mg/kg/injection, schedule: Q01DX009 (ip), vehicle: saline) was 3 of 6, the survivor count (dose: 50.0 mg/kg/injection, schedule: Q04DX003 (ip), vehicle: saline) was 5 of 6 and the survivor count [5] was 0 of 6.

In the case of `O=S(=O)(O)SCC1NCCCN1`, the survivor count [6] is reported as 3 of 3, the survivor count [7] is reported as 0 of 3 and the survivor count (dose: 400.0 mg/kg/injection, schedule: Q04DX002 (ip), vehicle: saline with Tween-80) is reported as 0 of 3.

`Fc1cc(F)c2ncccc2c1` was tested, and the T/C (dose: 75.0 mg/kg/injection, schedule: Q01DX001 (ip), vehicle: saline) was 126 % of control, the survivor count (dose: 150.0 mg/kg/injection, schedule: Q01DX001 (ip), vehicle: saline) was 0 of 6 and the survivor count [1] was 1 of 6. The survivor count (dose: 300.0 mg/kg/injection, schedule: Q01DX001 (ip), vehicle: saline) was 0 of 6.

For `CC(C)(C)C1=CC(=O)C(Cl)(C(C)(C)C)C(Cl)C1=O` (stereo not given), the survivor count (dose: 400.0 mg/kg/injection, schedule: Q01DX001 (ip), vehicle: saline with Tween-80) was 1 of 3.

`Cc1ccc(Cl)cc1NC(=O)Oc1cc(C)c(Cl)c(C)c1` was tested, and the survivor count [8] was 2 of 6.

For `O=C(CSc1cc(Cl)ccc1Cl)Nc1ccc(Cl)cc1Cl`, the survivor count (dose: 400.0 mg/kg/injection, schedule: Q04DX003 (ip), vehicle: carboxymethylcellulose (CMC)) was 6 of 6.

With `CCOC(=O)C(C#N)N=O` (stereo not given) the survivor count [5] was 3 of 6 and the survivor count [9] was 1 of 6.

`CCOC(=O)CCC(NC(=O)N(CCCl)CCCl)C(=O)OCC` (stereo not given) was tested, and the T/C (dose: 62.5 mg/kg/injection, schedule: Q01DX Z (ip), vehicle: water) was 137 % of control, the T/C [10] was 125 % of control [5 of 6 alive] and the T/C (dose: 125.0 mg/kg/injection, schedule: Q01DX Z (ip), vehicle: water) was 144 % of control. The T/C (dose: 200.0 mg/kg/injection, schedule: Q01DX009 (ip), vehicle: saline) was 133 % of control.

With `O=[N+]([O-])CC(OCCO)C(Cl)(Cl)Cl` (stereo not given) the survivor count (dose: 100.0 mg/kg/injection, schedule: Q04DX003 (ip), vehicle: acetone) was 0 of 6, the survivor count (dose: 200.0 mg/kg/injection, schedule: Q04DX003 (ip), vehicle: acetone) was 0 of 6 and the survivor count (dose: 400.0 mg/kg/injection, schedule: Q04DX003 (ip), vehicle: acetone) was 0 of 6.

In the case of `CC(C)(C)C[CH2][Hg][Cl]`, the survivor count (dose: 25.0 mg/kg/injection, schedule: Q04DX003 (ip), vehicle: Klucel (hydroxypropylcellulose) (HPC)) is reported as 3 of 6, the survivor count [2] is reported as 0 of 6 and the survivor count [3] is reported as 0 of 6. The survivor count [4] was 1 of 6.

For `OCC1CC[N-]CC1.OCC1CC[N-]CC1.[Cl][Pt+2]([Cl])([Cl])[Cl]`, the survivor count [10] was 1 of 6, the survivor count [9] was 2 of 6 and the survivor count (dose: 400.0 mg/kg/injection, schedule: Q04DX003 (ip), vehicle: saline) was 0 of 6.

For `c1coc(CNc2cc(NCc3ccco3)ncn2)c1`, the survivor count [8] was 4 of 6.

`CN1CCCCC1CCC1c2ccccc2CCc2ccccc21` (stereo not given) was tested, and the survivor count (dose: 50.0 mg/kg/injection, schedule: Q01DX009 (ip), vehicle: saline) was 3 of 6 and the survivor count [10] was 0 of 6.

With `O=C(O)C(F)(F)C(F)(F)F.[Ag]` the survivor count (dose: 150.0 mg/kg/injection, schedule: Q01DX001 (ip), vehicle: acetone) was 0 of 6 and the survivor count (dose: 300.0 mg/kg/injection, schedule: Q01DX001 (ip), vehicle: acetone) was 0 of 6.

With `CCCCCCCCN(C)N=Nc1ccc(Cl)cc1C(=O)O` the T/C (dose: 100.0 mg/kg/injection, schedule: Q01DX009 (ip), vehicle: Klucel (hydroxypropylcellulose) (HPC)) was 129 % of control, the survivor count [2] was 6 of 6 and the survivor count [3] was 6 of 6. The T/C (dose: 300.0 mg/kg/injection, schedule: Q01DX009 (ip), vehicle: Klucel (hydroxypropylcellulose) (HPC)) was 131 % of control, the survivor count [8] was 3 of 6 and the survivor count [4] was 6 of 6. For the same compound, the survivor count (dose: 600.0 mg/kg/injection, schedule: Q04DX003 (ip), vehicle: Klucel (hydroxypropylcellulose) (HPC)) was 1 of 6.

With `NC(CCl)=NC1CCCCC1` the survivor count (dose: 200.0 mg/kg/injection, schedule: Q04DX002 (ip), vehicle: saline) was 0 of 3 and the survivor count (dose: 400.0 mg/kg/injection, schedule: Q04DX002 (ip), vehicle: saline) was 0 of 3.

With `CN(CCO)/N=N/c1nc[nH]c1C(N)=O` the T/C (dose: 200.0 mg/kg/injection, schedule: Q01DX009 (ip), vehicle: carboxymethylcellulose (CMC)) was 148 % of control and the T/C (dose: 600.0 mg/kg/injection, schedule: Q01DX009 (ip), vehicle: carboxymethylcellulose (CMC)) was 142 % of control [4 of 6 alive].

In the case of `O=C(O)/C=C/C(=O)Nc1ccccc1-n1cccc1`, the survivor count (dose: 400.0 mg/kg/injection, schedule: Q01DX009 (ip), vehicle: saline) is reported as 3 of 6.

In the case of `O=[N+]([O-])c1ncn[nH]1`, the survivor count (dose: 200.0 mg/kg/injection, schedule: Q01DX009 (ip), vehicle: saline with Tween-80) is reported as 6 of 6.

With `CC1=C2C(=CO[C@H](C)[C@H]2C)C(=O)C(C(=O)O)=C1O` the survivor count [6] was 0 of 3 and the survivor count [7] was 0 of 3.
